Taken from: PubChem BioAssay AID602196 (INSERM, 2012)

Purpose: 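Knock-downs that protect lung cancer cells from cisplatin or sensitise them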
System: human A549 lung cancer cells
Reagents: siRNA pair against human genes
Duration: 48 h transfection before cisplatin; time from cisplatin to read-out not stated
Challenge: cisplatin at a dose killing half of control-siRNA cells; exact dose and duration not given
Measured: 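Cisplatin cell death as a shift from the 50% death seen with control siRNA; siRNAs toxic or growth-blocking alone scored 0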
Scale: two-siRNA summed score (-2 to +2): higher = both siRNAs protect from cisplatin killing; -2 means both sensitise; mean protection from cisplatin (shift in death) and protection from cisplatin (shift in death), siRNA C: higher = protection from cisplatin killing
Rule for the call: 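siRNAs harmful alone (LDH or WST-1) get 0; others get +1 for less and -1 for more cisplatin killing; genes are active when the two siRNAs give the same sign, summing to ±2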
Calls: active = both siRNAs shift cisplatin killing the same way; inactive = no consistent shift, or siRNA harmful alone
The whole screen tested about 23,000 reagents; this is a random part of them. 455 of them (2%) count as active. 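Active includes both protection and sensitisation; some change values fall well beyond the stated -50 to +50 range.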 Unmarked entries are inactive. Not all columns of the deposit are shown. The record does not give: the amount of reagent.

no.	gene knocked down	two-siRNA summed score (-2 to +2)	mean protection from cisplatin (shift in death) (%)	protection from cisplatin (shift in death), siRNA C (%)
1	RILP	0	19	25.3
2	TSGA10	1	6.9	-0.3
3	SMCR8	0	-5.6	-0.9
4	LOC285422	0	1.9	7
5	AP2S1	0	-3.9	1.3
6	NOSTRIN	0	3.2	5.9
7	SCAND3	0	1	-1
8	ADGRE5	1	16.2	13.2
9	LOC442616	0	2.3	1.5
10	NTS	0	-2	-0.6
11	LOC442043	1	18.5	16.5
12	CCN1	0	-11.7	-31.5
13	CLU	0	0.9	-4.8
14	BCAN	1	25.3	18.8
15	UTF1	1	11.7	19.3
16	TEPSIN	0	1.3	1.6
17	SH3TC2-DT	0	13.7	18
18	KIAA2013	0	9.6	9.1
19	ALDH4A1	-1	-34.9	-38.2
20	LOC390531	0	11.4	9.5
21	TSN	0	5	3.4
22	SUN5	0	1.1	3.4
23	LOC441392	1	7.7	20.3

Single entries from above.
LOC390531, protection from cisplatin (shift in death), siRNA C (%): 9.5
Result of BCAN under “protection from cisplatin (shift in death), siRNA C (%)”: 18.8
LOC285422, mean protection from cisplatin (shift in death) (%) → 1.9
For “protection from cisplatin (shift in death), siRNA C (%)”, TSGA10 is entered as -0.3

The listing continues:
no.	gene knocked down	two-siRNA summed score (-2 to +2)	mean protection from cisplatin (shift in death) (%)	protection from cisplatin (shift in death), siRNA C (%)
24	CXCR3	0	-5.2	4.7
25	LRRC2	0	20.7	22.8
26	TCL1B	0	16.2	6.9
27	PAFAH1B3	-1	-22	-48.4
28	NAA25	0	-4.9	-17.6
29	ZNF516	0	5.1	8.4
30	ZNF26	0	5.8	8.7
31	GNL2	0	11.2	10.5
32	TLR1	0	2.3	-0.6
33	CCRL2	1	12.7	8.9
34	TRAPPC2	-1	3.4	21.5
35	ZNF490	0	5.8	18.2
36	CUTC	0	-1.8	-5.4
37	TCF7L1	0	6.4	4.1
38	LOC152078	2 (active)	17.5	23
39	SMARCD1	1	13.9	15
